# Measurements reported in PubChem BioAssay AID686943 (Drosophila RNAi Screening Center, 2013)
# Purpose: 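Knockdowns that increase or decrease active ERK after insulin receptor stimulation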 (primary screen)
# Cells: Drosophila S2R+ haemocyte-like cells expressing YFP-tagged ERK (Rolled)
# Knock-down reagent: long dsRNA against Drosophila genes
# Conditions: insulin stimulation versus unstimulated cells; dose and duration not given
# Measurement: 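Antibody staining for doubly phosphorylated ERK divided by ERK-YFP signal, as plate z-scores, in insulin-treated and untreated cells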
# Reading the numbers: replicate 1, z-score of dpERK with insulin: higher = more active ERK per ERK-YFP after insulin
# The deposit covers about 23,000 reagents; this is an unselected part of those with a known target gene and a result. 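Extra replicates exist only for a retested subset of genes; insulin dose and duration not given; both raised and lowered dpERK matter.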 The numbers tell different reagents against one gene apart. Names joined by + are all predicted targets of the reagent. Not all columns of the deposit are shown. Not stated in the record: the amount of reagent, the time to read-out.
"replicate 1, z-score of dpERK with insulin",gene knocked down,reagent no.
-0.57,CG30378,1
0.2,wwk,1
0.31,CG13989,1
0.54,Gr98d,1
-0.9,Orc1,1
-0.39,qless,1
-0.61,qless,2
0.98,CG12219,1
0.47,CG15126,1
-0.27,CG32100,1
1.05,CG32100,2
-0.48,mRpS6,1
-0.99,CG15118,1
0.18,CG16781,1
-0.17,Nup75,1
-0.1,CG8892,1
-0.51,CG33217,1
0.51,CG18539,1
-0.1,CG4004,1
-0.54,CG4004,2
1.15,Hibch,1
0.12,Swip-1,1
-0.77,Swip-1,2
0.31,CG7800,1
1.05,CG13334,1
3.07,Polr2C,1

The list goes on, starting with the last 4 of the part before.
"replicate 1, z-score of dpERK with insulin",gene knocked down,reagent no.
-0.77,Swip-1,2
0.31,CG7800,1
1.05,CG13334,1
3.07,Polr2C,1
0.08,CG3942,1
-0.07,Pli,1
0.46,Ufl1,1
-1.29,Mtl,1
-0.13,Klp67A + CG34456,1
-1.32,Bka,1
1.07,beat-Ib,1
-0.31,CG4372,1
1.11,regucalcin,1
-0.39,regucalcin,2
0.15,CG11076,1
0.74,CG30496,1
0.98,Patj,1
